Experimental data: PubChem BioAssay AID1508588 (Peter MacCallum Cancer Centre, 2020)
The whole screen tested about 18,000 reagents; shown is a random part of them. 790 of all reagents (4.4%) were called active. 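Calls rest on a combination of fold-change classes in drug and vehicle arms, not all shown here.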 Reagent sequences are not shown.

Assay: 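Knock-downs boosting vemurafenib effects on melanoma cell growth or lactate release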 (primary screen)
Cell system: human WM266.4 melanoma cells (BRAF V600 mutant)
Reagent: siRNA pool against human genes, 40 nM
Duration: 96 h from transfection to read-out
Challenge: vemurafenib 300 nM (about IC25), added 48 h after transfection, for 48 h; comparison arm got DMSO vehicle only
Measurement: 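Cell gain (DAPI nuclei at end minus before drug, mean of two replicates) and medium lactate by absorbance per cell, both as ratio to non-targeting siRNA, also grouped into fold-change classes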
Direction: cell gain with vemurafenib: higher = more cell gain than with non-targeting siRNA; lactate per cell with vemurafenib: higher = more lactate made per cell
Active means: 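Enhancement is called by pairing each knock-down's vehicle-arm and drug-arm fold-change classes for viability or glycolysis; which class combinations qualify is not given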
Meaning of the calls: active = enhances vemurafenib effect; inactive = no enhancement seen

Target gene	cell gain with vemurafenib	lactate per cell with vemurafenib	outcome
YDJC	0.57	0.84	inactive
SLC25A45	0.59	1.27	inactive
PHETA1	0.45	0.26	inactive
TMEM267	0.56	0.98	inactive
CALY	0.83	1.04	inactive
CATSPER3	0.57	0.95	inactive
MTNR1B	0.3	1.88	inactive
IKZF1	0.79	1.02	inactive
ZNF7	1.04	0.88	inactive
TMEM214	0.84	0.86	inactive
SCAF4	1.13	0.57	inactive
FMR1	0.12	1.06	inactive
C14orf39	0.5	0.78	inactive
APPL2	0.75	1.57	inactive
ZNF514	0.46	1.19	inactive
NOL9	0.48	0.9	inactive
OR2B3	0.45	0.98	inactive
ZNF684	0.04	1.08	inactive
SHISA3	0.34	1.1	inactive
TMEM248	0.67	0.86	inactive
OR10AG1	0.5	1.34	inactive
LGALS8	0.43	1.27	inactive
RIMS2	0.58	1.47	inactive
SPRR3	0.4	0.82	inactive
PLEKHM3	0.54	0.64	active
ASIC2	0.77	0.86	inactive
ZBTB17	0.92	0.47	inactive
RALBP1	0.3	0.74	inactive
METTL9	0.53	0.71	inactive
SLC46A1	1.28	0.7	inactive
TSPAN18	0.22	0.96	inactive
CLDN2	0.14	1.29	inactive
RD3	0.32	1.52	inactive
MRPL51	0.74	0.32	inactive
POLD2	0.28	2.04	inactive
LMO4	0.62	0.84	inactive
POU2F3	0.63	1.54	inactive
E2F8	0.97	0.84	inactive
TM4SF1	0.73	1.6	inactive
RANBP10	0.31	0.82	inactive
KCTD1	0.24	1.29	inactive
SMIM11	1.01	0.6	inactive
PIMREG	0.47	0.92	inactive
DENND1A	0.66	0.46	inactive
ACCSL	0.67	1.96	inactive
AP2M1	-0.05	2.8	inactive
NKX2-3	0.31	2.25	inactive
ZNF417	1.06	0.46	inactive
MPEG1	0.72	0.94	inactive
FOSB	0.52	0.87	inactive
ZNF394	0.25	2.57	inactive
PF4V1	0.73	0.6	inactive

Targets above whose gene name starts with A or a:
Target gene	cell gain with vemurafenib	lactate per cell with vemurafenib	outcome
APPL2	0.75	1.57	inactive
ASIC2	0.77	0.86	inactive
ACCSL	0.67	1.96	inactive
AP2M1	-0.05	2.8	inactive

Next results:
Target gene	cell gain with vemurafenib	lactate per cell with vemurafenib	outcome
PARS2	0.6	1.23	inactive
SGO2	0.69	0.6	inactive
CDKL3	0.94	0.64	inactive
ST8SIA1	0.53	0.94	inactive
SLC10A5	0.34	0.94	inactive
MYBPC2	0.85	0.24	inactive
TIAL1	0.91	0.82	inactive
NOG	0.25	2.12	inactive
RPAP3	0.15	2.6	inactive
MIS18A	0.55	1.31	inactive
STMN2	0.78	1.19	inactive
C14orf184 (retired record)	0.63	1.62	inactive
DPY19L3	1.08	0.98	inactive
SLC35B1	0.69	0.78	inactive
AMIGO1	0.91	0.93	inactive
RAB6B	0.44	1.44	inactive
OR5T1	0.16	1.36	inactive
DIRC1	0.39	1.06	inactive
C22orf39	0.57	0.68	inactive
ZNF280D	0.79	1.38	inactive
OR5A1	0.87	0.76	inactive
RBPMS2	0.65	0.88	inactive
C16orf54	0.36	1.16	inactive
SLC71A1	0.57	1.2	inactive
ATG12	0.61	0.62	inactive
TBC1D5	-0.08	0.36	active
H3-5	1.05	0.7	inactive
SCN4B	0.85	0.88	inactive
PRKCE	0.5	0.72	inactive
PIWIL4	0.46	0.55	inactive
MVK	0.9	0.67	inactive
RBMX2	0.1	3.36	inactive
